Results are given in words; binding and its absence hold for the method and conditions named. In cells and extracts the contact can be indirect. A result given as binding can be weak or reduced; the word gives no strength.
Molecular target: GST tagged TRAF6 C-domain (UniProt Q9Y4K3)
Test: pull-down; GST-TRAF6 C-domain on glutathione agarose beads added to clarified lysate of transfected 293T cells; 4 C, 4 h; 50 mM Tris pH 7.4, 1.0% Triton X-100, 150 mM NaCl, 1 mM EDTA; blot with anti-FLAG; only the target purified

Chains of the proteins cited; added tags and fusions are not shown. Lines headed by an entry give the natural chain unless they say otherwise; changes in a name come on top.
UniProt Q9Y4K3: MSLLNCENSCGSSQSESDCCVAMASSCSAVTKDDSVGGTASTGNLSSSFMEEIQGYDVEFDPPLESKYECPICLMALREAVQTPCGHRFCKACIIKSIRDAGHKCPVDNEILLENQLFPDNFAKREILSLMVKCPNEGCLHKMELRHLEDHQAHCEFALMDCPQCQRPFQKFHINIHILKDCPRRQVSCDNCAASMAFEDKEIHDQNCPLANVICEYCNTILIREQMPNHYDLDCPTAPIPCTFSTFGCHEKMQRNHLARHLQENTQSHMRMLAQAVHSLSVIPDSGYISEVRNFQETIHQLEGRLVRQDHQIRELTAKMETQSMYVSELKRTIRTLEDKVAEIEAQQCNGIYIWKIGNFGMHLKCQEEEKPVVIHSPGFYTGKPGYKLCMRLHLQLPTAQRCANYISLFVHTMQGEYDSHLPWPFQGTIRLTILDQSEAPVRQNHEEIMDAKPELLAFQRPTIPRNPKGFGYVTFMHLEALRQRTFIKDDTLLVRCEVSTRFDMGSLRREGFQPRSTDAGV
UniProt P40763: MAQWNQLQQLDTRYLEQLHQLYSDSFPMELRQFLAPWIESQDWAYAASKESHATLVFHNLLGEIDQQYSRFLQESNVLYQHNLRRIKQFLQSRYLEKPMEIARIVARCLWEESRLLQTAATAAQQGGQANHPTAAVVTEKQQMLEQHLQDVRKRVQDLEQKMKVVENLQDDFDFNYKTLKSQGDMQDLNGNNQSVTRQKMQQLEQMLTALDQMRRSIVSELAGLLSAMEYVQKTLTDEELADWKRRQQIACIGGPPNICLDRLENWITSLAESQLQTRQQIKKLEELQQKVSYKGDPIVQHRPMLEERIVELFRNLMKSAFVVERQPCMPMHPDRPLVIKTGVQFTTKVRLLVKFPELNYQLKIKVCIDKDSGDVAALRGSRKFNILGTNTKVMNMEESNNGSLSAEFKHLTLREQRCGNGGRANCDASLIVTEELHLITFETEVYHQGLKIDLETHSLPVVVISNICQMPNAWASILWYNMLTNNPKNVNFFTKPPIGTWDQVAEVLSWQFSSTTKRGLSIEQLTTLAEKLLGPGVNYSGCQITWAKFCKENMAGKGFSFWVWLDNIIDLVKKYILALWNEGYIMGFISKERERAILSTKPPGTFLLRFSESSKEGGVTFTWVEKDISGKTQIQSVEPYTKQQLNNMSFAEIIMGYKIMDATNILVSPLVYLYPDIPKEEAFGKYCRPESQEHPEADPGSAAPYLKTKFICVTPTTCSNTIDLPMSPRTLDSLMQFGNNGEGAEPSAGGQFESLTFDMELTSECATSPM

Substance | binding
FLAG-tagged STAT3 (wild type) (from UniProt P40763 1-770) | binds
FLAG-tagged STAT3 E28A E680A (from UniProt P40763) | binds

Next, values leading:

binding | Substance
binds | FLAG-tagged STAT3 E28A (from UniProt P40763)
no binding | FLAG-tagged STAT3 E100A (from UniProt P40763 1-770)
binds | FLAG-tagged STAT3 E680A (from UniProt P40763 1-770)

Reference: publication PMC7393113
